This note sets out measurements from paper PMC11015022.

Protein sequences, listed by entry. Tags and fused reporters are not part of them.
UniProt P63017: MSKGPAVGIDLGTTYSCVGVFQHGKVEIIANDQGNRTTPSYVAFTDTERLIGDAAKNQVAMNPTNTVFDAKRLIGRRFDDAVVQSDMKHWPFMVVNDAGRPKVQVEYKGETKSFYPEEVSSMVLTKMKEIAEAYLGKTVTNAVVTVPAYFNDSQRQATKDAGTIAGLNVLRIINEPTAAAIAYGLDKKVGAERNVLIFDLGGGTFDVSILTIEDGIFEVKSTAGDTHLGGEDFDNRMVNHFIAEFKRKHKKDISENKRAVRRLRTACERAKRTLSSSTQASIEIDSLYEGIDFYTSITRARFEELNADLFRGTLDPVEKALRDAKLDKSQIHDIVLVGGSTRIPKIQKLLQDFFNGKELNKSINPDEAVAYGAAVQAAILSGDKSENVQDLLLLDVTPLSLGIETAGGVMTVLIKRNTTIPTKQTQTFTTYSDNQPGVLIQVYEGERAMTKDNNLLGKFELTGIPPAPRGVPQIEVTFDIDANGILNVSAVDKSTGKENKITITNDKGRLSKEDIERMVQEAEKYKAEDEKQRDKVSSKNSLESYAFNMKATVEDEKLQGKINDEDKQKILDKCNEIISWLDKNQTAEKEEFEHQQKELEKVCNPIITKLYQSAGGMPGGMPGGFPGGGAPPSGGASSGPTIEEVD
UniProt P51807: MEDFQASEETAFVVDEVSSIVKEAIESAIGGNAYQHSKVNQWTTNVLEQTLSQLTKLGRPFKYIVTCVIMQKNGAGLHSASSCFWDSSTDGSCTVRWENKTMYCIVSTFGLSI
UniProt Q99104: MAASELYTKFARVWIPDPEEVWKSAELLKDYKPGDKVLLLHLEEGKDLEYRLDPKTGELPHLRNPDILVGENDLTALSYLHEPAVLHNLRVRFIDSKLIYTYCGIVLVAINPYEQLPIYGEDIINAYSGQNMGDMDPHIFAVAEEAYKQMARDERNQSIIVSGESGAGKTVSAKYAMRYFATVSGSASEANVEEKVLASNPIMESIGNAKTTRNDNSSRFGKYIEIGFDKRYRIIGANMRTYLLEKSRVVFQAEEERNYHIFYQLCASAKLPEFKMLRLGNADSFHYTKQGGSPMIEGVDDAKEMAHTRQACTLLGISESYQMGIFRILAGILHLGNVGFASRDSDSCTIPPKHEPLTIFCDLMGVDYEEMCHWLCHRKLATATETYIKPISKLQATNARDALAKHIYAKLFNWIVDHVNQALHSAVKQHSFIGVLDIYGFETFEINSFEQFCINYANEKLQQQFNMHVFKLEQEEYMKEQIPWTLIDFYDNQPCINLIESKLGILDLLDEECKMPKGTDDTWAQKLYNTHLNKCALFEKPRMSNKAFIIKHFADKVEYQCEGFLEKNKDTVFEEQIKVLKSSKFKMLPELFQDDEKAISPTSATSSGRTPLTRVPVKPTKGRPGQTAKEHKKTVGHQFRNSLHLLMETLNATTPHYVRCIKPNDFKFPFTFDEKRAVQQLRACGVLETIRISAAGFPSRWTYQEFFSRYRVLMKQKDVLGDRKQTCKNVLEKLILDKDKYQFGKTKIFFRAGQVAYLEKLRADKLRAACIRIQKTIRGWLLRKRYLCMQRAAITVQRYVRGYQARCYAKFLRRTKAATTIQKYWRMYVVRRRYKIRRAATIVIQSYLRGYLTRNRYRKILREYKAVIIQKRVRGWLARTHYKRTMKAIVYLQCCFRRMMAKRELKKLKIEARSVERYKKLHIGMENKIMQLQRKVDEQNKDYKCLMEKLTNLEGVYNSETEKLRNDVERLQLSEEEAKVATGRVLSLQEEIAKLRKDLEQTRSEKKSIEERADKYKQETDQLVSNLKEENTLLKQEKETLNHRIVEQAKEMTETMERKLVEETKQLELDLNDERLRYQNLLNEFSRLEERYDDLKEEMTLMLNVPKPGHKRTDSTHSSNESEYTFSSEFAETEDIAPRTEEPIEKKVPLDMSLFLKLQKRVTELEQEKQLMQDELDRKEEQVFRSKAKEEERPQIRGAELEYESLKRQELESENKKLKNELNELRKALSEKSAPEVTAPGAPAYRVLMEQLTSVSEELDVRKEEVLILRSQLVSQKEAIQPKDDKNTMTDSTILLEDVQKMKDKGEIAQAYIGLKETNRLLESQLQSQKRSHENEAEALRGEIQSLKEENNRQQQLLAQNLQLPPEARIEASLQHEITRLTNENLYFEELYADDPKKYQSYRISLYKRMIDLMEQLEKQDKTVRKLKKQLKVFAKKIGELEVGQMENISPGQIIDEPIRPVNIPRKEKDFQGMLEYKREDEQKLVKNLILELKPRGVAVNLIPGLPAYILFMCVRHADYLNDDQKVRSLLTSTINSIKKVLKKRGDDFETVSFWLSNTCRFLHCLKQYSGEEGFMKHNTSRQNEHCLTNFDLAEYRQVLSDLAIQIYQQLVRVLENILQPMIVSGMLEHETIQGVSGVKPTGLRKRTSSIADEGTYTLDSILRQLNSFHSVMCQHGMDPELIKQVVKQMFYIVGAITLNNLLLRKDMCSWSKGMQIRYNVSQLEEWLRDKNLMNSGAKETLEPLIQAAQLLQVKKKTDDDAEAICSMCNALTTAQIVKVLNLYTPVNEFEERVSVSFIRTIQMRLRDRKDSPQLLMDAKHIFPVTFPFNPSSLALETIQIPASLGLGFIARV

The target of assay [1] is HSPA8 (heat shock cognate 70 kDa protein) (mouse (endogenous in mouse testis)) (UniProt P63017). Nature of the assay: affinity purification with mass spectrometry; IP with HSPA8 antibody from mouse testis lysate, LC-MS.
For assay [2], the target named is T1, BAG5 (mouse (endogenous in mouse testis)) (UniProt Q8CI32).
T1 sequence: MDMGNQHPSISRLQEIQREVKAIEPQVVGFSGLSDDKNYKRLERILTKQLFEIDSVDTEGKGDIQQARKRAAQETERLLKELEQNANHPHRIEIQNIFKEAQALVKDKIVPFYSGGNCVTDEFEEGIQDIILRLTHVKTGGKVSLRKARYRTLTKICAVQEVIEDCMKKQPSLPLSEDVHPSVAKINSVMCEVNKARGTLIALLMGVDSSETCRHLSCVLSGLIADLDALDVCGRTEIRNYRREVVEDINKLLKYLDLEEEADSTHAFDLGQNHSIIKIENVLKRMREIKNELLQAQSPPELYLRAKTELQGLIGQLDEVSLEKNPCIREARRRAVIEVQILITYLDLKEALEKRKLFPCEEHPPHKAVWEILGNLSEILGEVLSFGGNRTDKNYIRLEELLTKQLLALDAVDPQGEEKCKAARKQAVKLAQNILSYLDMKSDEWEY
Nature of the assay: affinity purification with mass spectrometry; IP with BAG5 antibody from adult WT mouse testis lysate, LC-MS; Bag5 KO testes as negative control.

These are yes or no findings as the source states them, for the method shown. Binding seen in cells or lysates may run through a third protein. A yes stands for co-enrichment or nearness to the bait. Other partners may have been found.

Consider DYNLT1 (from UniProt P51807 1-113), for which the binding entry in assay [1] and in assay [2] was “binds” each time.

With MYO5A (from UniProt Q99104 1-1853), the binding result in assay [1] and in assay [2] was “binds” throughout.
